About 6,100 (1.1%) of roughly 580,000 compounds were called active. The inconclusive results got no clear call from the source; some entries with a clear call stand among them for comparison. Calls follow the shape of the dose curve; as a rule, active = well fitted inhibition curve with a large enough effect; inconclusive = small, poorly fitted or top-dose-only effect, or another doubt; inactive = no such curve, though single readings can be large or run the other way. Potencies of inconclusive entries are doubtful fits and often do not repeat.
Target: Polyunsaturated fatty acid lipoxygenase ALOX12 (Homo sapiens) (UniProt P18054)
Experiment: Primary qHTS assay for inhibitors of human arachidonate 12S-lipoxygenase (ALOX12): Round 2
Details: purified 12hLO, xylenol orange hydroperoxide absorbance; activity change, negative = inhibition: at 108 µM (top of the series)
Procedure, shortened: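 Purified human 12hLO at 150 nM in 25 mM Hepes, 0.01% Triton X-100, pH 7.0, preincubated 15 min at room temperature with compound. Reaction started with 40 uM arachidonic acid, 30 min at room temperature. Hydroperoxide measured by Fe-xylenol orange, 573/405 nm absorbance ratio.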
% is scaled to controls: 0 for no effect and ±100 for the full control effect; potency is read from the fitted curve at half-maximal effect.

By UniProt entry, the sequences of proteins in these tests, tags left out.
UniProt P18054, whole entry, looked up: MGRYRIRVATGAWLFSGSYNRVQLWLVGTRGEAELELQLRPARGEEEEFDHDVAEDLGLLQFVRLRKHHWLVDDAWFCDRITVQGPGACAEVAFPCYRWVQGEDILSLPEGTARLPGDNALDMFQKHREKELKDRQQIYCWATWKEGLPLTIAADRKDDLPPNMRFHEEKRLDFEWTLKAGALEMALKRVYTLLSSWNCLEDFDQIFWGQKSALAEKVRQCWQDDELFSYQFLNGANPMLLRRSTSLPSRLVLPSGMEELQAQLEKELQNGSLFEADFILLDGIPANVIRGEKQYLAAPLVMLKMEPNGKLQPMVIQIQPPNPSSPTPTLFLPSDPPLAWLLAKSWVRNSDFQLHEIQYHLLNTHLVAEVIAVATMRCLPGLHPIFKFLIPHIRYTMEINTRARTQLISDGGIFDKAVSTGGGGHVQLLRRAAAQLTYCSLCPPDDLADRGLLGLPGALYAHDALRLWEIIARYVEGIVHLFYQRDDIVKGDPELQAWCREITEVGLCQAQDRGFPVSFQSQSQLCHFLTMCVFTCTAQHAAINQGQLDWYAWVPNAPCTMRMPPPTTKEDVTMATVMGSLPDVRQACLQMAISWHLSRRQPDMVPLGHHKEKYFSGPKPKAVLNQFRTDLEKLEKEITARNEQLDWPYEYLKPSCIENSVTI

| SMILES | Potency | activity change, negative = inhibition |
| --- | --- | --- |
| CC1(C)C2CC=C(CN3CCC(O)CC3)C1C2 (stereo unspecified) | inconclusive: 1.58 µM [inhibitor, full curve, poor fit] | – |
| Cc1cc(S(=O)(=O)NC(C)C)ccc1OCC(=O)N1CCN(Cc2ccc3c(c2)OCO3)CC1 | inactive | – |
| Cc1cccc(-n2c(/C=C/c3cn(C)c4ccccc34)nc3ccccc3c2=O)c1 | inconclusive: 89.1 µM [inhibitor, partial curve, poor fit] | – |
| CC(=NC1CCN(Cc2ccccc2)CC1)c1c(O)n(C)c(=O)n(C)c1=O | inconclusive: 50.1 µM [inhibitor, partial curve, poor fit] | – |
| Cc1cccc(NC(N)=S)c1 | inconclusive: 44.7 µM [inhibitor, partial curve, poor fit] | – |
| CN1CCc2c(C#N)c(Cl)nc(Cl)c2C1 | inactive | – |
| O=C(O)CCCC(=O)N1C[C@@H]2C[C@H](C1)c1ccc(-c3ccc(Cl)cc3)c(=O)n1C2 | inactive | – |
| Cc1ccc(C)c(NC(=O)c2cn(Cc3ccccc3)nn2)c1 | inconclusive: 112 µM [inhibitor, single point] | – |
| Cc1nc(-c2cccs2)cc([C@H]2CN3CC[C@H]2C[C@@H]3COC(=O)Nc2ccc(C(C)C)cc2)n1 | active: 44.7 µM | – |
| CCC(CO)(C(=O)OC1C[N+]2(C)CCC1CC2)c1ccccc1 (stereo unspecified) | active: 44.7 µM | – |
| C#CCNc1ccncc1S(=O)(=O)NC(=O)NC(C)C | inconclusive: 5.62 µM [inhibitor, full curve, poor fit] | – |
| COCCN1C(=O)CS(=O)(=O)C12CCNCC2 | inactive | – |
| COC(=O)c1c(C)n(Cc2ccc3c(c2)OCO3)c2ccc(O)cc12 | active: 12.6 µM | – |
| CCc1n[nH]c(CCN)n1 | inconclusive: 39.8 µM [inhibitor, partial curve, poor fit] | – |
| CN1CCC(N(C)Cc2cccnc2)CC1 | inconclusive: 0.224 µM [inhibitor, full curve, poor fit] | – |
| O=C(COc1ccccc1Cl)N1CCN(CCc2ccncc2)CC1 | inconclusive: 39.8 µM [inhibitor, full curve, poor fit] | – |
| CC(C)(c1ccccc1)c1ccc(O)c(C(C)(C)c2ccccc2)c1 | inconclusive: 79.4 µM [inhibitor, single point] | – |
| N#Cc1cc2c(nc1SCC(=O)Nc1ccc(OC(F)(F)F)cc1)C1CCN2CC1 | inconclusive: 50.1 µM [inhibitor, partial curve, poor fit] | – |
| CCOc1cc(CNCCc2c[nH]c3ccccc23)ccc1OC | inconclusive: 0.631 µM [inhibitor, full curve] | – |
| CCOC(=O)C1=C(C)OC(N)=C(C#N)C12C(=O)Nc1ccc(C)cc12 (stereo unspecified) | – | inconclusive: -31% [inhibitor] |
| Nc1cc(C(=O)Nc2ccc(Cl)cc2)ccc1N1CC2CC(C1)c1cccc(=O)n1C2 (stereo unspecified) | inconclusive: 44.7 µM [inhibitor, partial curve, poor fit] | – |
| CCCN(CCC)c1c([N+](=O)[O-])cc(S(N)(=O)=O)cc1[N+](=O)[O-] | inconclusive: 16.5 µM [inhibitor, partial curve] | – |

| SMILES | Potency | activity change, negative = inhibition |
| --- | --- | --- |
| c1cncc(C2=NOC3(CCN(C4COC4)CC3)C2)c1 | – | inactive: 2.77% [at 12.5 µM] |
| c1ccc(CCNCC2CCCCC2)cc1 | inconclusive: 79.4 µM [inhibitor, partial curve, poor fit] | – |
| C=C(C)[C@@H]1CC=C(C=O)CC1 | inactive | – |
| CCN(CC)C(=O)c1ccc(NC(=O)COC(=O)c2ccc3nc(C)c(C)nc3c2)cc1 | inactive | – |
| CCC(=NCCN1CCOCC1)c1c(O)n(-c2ccccc2C)c(=O)[nH]c1=O | inconclusive: 141 µM [inhibitor, single point] | – |
| CC(=NCc1ccco1)c1c(O)n(-c2ccccc2C)c(=O)[nH]c1=O | inconclusive: 100 µM [inhibitor, partial curve, poor fit] | – |
| Cc1ccc(CC2C(=O)N(C)C(=O)N(C)C2=O)s1 | inconclusive: 31.6 µM [inhibitor, partial curve, poor fit] | – |
| Cc1nc(-c2ccc(N(C)C)cc2)cc([C@H]2CN3CC[C@H]2C[C@@H]3COC(=O)Nc2ccccc2)n1 | inconclusive: 56.2 µM [inhibitor, partial curve, poor fit] | – |
| O=C1CN=C(c2ccc(F)cc2)c2oc3ccccc3c2N1 | inconclusive: 5.62 µM [inhibitor, full curve, poor fit] | – |
| COc1ccc(OCC(=O)N2CCN(C3CCC(c4ccccc4)CC3)CC2)cc1 (stereo unspecified) | inconclusive: 39.8 µM [inhibitor, partial curve, poor fit] | – |
| CN1C(=O)C(=Cc2coc3ccccc3c2=O)C(=O)N(C)C1=O | inconclusive: 35.5 µM [inhibitor, partial curve, poor fit] | – |
| O=C(O)c1cn(Cc2ccccc2F)nn1 | inconclusive: 25.1 µM [inhibitor, full curve] | – |
| COC(=O)c1ccc(CN2CCN(Cc3ccccc3)CC2)cc1 | inconclusive: 7.94 µM [inhibitor, partial curve, poor fit] | – |
| c1ccc(CCCN2CCN(CCOC(c3ccccc3)c3ccccc3)CC2)cc1 | inconclusive: 31.6 µM [inhibitor, partial curve, poor fit] [middle of 4 runs] | – |
| Cn1nc(C2CCCCC2)cc1[C@H]1CN2CC[C@H]1C[C@@H]2CNC(=O)c1ccc2c(c1)OCO2 | inactive | – |
| CN1C(=O)N(C)C(=O)C2(Cc3c(ccc4ccccc34)N(C)C2)C1=O | inactive | – |
| Cc1ccc(-c2cc(-c3ccccc3)cc(-c3ccccc3)[n+]2-c2ccccc2C(=O)O)cc1 | inconclusive: 0.398 µM [inhibitor, full curve, poor fit] | – |
| COc1cncc(-c2cc3c(cc2OC)C2(CCN(C(C)=O)CC2)C(=O)N3)c1 | inactive | – |
| CC(=O)NS(=O)(=O)c1ccc(NC(=O)c2cccn(Cc3ccc(Cl)cc3)c2=O)cc1 | inconclusive: 50.1 µM [inhibitor, full curve, poor fit] | – |
| O=C(OC1CCN(CCCl)CC1)C(c1ccccc1)c1ccccc1 | inconclusive: 44.7 µM [inhibitor, partial curve, poor fit] | – |
| CN(C)C(=O)Oc1ccc(Cl)c2cccnc12 | inactive | – |
| CC(N)Cc1c[nH]c2c1ccc1ccccc12 (stereo unspecified) | inconclusive: 44.7 µM [inhibitor, partial curve, poor fit] | – |

3 of these compounds, set out differently:
SMILES | Potency | activity change, negative = inhibition
O=C(O)c1cn(Cc2ccccc2F)nn1 | inconclusive: 25.1 µM [inhibitor, full curve] | –
COC(=O)c1ccc(CN2CCN(Cc3ccccc3)CC2)cc1 | inconclusive: 7.94 µM [inhibitor, partial curve, poor fit] | –
c1ccc(CCCN2CCN(CCOC(c3ccccc3)c3ccccc3)CC2)cc1 | inconclusive: 31.6 µM [inhibitor, partial curve, poor fit] [middle of 4 runs] | –

(further entries)

| SMILES | Potency | activity change, negative = inhibition |
| --- | --- | --- |
| CC1CCCC(O)CCCCCc2cc(O)cc(O)c2C(=O)O1 (stereo unspecified) | inconclusive: 56.2 µM [inhibitor, single point] | – |
| O=C1NC(=O)N(Cc2ccccc2)C(=O)/C1=C\c1ccco1 | inconclusive: 44.7 µM [inhibitor, partial curve, poor fit] | – |
| O=C(CCc1nc(C2=CCN(Cc3cccc(Cl)c3)CC2)no1)Nc1ccccc1F | inactive | – |
| CN(Cc1ccccc1)C[C@H]1CN2CC[C@H]1C[C@@H]2CNC(=O)Nc1cccc(C#N)c1 | inconclusive: 25.1 µM [inhibitor, partial curve] | – |
| COC(=O)C1=C(c2ccc(F)cc2OCc2ccccc2)C[C@@H]2CC[C@H]1N2C(=O)NCC1CC1 | inactive | – |
| CC(C)c1nnc2ccc(N3CCN(C)CC3)nn12 | inactive | – |
| CCCC1C(C#N)=C(N)Oc2c1c(=O)oc1ccccc21 (stereo unspecified) | inconclusive: 44.7 µM [inhibitor, partial curve, poor fit] | – |
| O=C(CF)NC(NC(=S)Nc1cccc([N+](=O)[O-])c1)C(Cl)(Cl)Cl (stereo unspecified) | inconclusive: 56.2 µM [inhibitor, partial curve, poor fit] | – |
| COc1cccc(CN2CCN(C)CC2)c1OC | inconclusive: 0.316 µM [inhibitor, full curve, poor fit] | – |
| COc1ccc(NC(=O)N2[C@H]3CC[C@@H]2c2cnc(C)nc2C3)cc1F | inactive | – |
| COc1ccc(-c2c(C#N)c(N)nc3c2c(=O)nc2sccn23)cc1OC | inactive | – |
| CC(C)(C)n1nnnc1C(c1cc2ccccc2o1)N1CCC2(CC1)C(=O)NCN2c1ccccc1 (stereo unspecified) | inconclusive: 100 µM [inhibitor, single point] | – |
| Fc1ccc(NC(=S)NCCc2cnc[nH]2)cc1 | inactive | – |
| CCOP(=O)(Cc1cc(C#N)oc1C)OCC | inactive | – |
| C[C@]12CCC3C(CC[C@H]4C[C@H](OC(=O)c5cccnc5)CC[C@]34C)C1CCC2=O (stereo partly specified) | inconclusive: 79.4 µM [inhibitor, partial curve, poor fit] | – |
| CCOC(=O)c1ccccc1NC(=O)c1c(O)[nH]c(=S)[nH]c1=O | inconclusive: 44.7 µM [inhibitor, partial curve, poor fit] | – |
| CCOC(=O)N(CC)c1ccc(C(O)(C(=O)OCC)C(F)(F)F)cc1 (stereo unspecified) | inconclusive: 5.01 µM [inhibitor, full curve, poor fit] | – |
| CCC(C)N1CCN(C(=O)COc2ccc3ccccc3c2)CC1 (stereo unspecified) | inconclusive: 0.794 µM [inhibitor, full curve] | – |
| C[C@]12CCC3C(CC[C@H]4[C@@H](O)[C@H](O)CC[C@]34C)C1CCC2=O (stereo partly specified) | inactive | – |
| COC(=O)C1=C(c2ccc(OCc3ccccc3)cc2)C[C@@H]2CC[C@H]1N2C | inconclusive: 50.1 µM [inhibitor, partial curve, poor fit] | – |
| COc1ccc(Cl)cc1NC(=O)c1sc2nc3c(cc2c1N)N1CCC3CC1 | inconclusive: 44.7 µM [inhibitor, partial curve, poor fit] | – |
| Cc1ccc([C@@H]2CN(C(=O)c3snnc3C)[C@@H]3C4CCN(CC4)[C@@H]32)cc1 | inconclusive: 5.01 µM [inhibitor, full curve] | – |
